Measurements taken from the supplement of paper PMC3682954.
Counter-ions that a name gives are not always drawn. ± gives the standard deviation of the averaged measurements. The list shows a part of the results. Many values rest on one well or one pass, so single values are uncertain.

System: RAW 264.7
Experiment: cell viability (MTT) relative to vehicle control; higher = more viable cells
Details: stimulus: HMGB1 5 ug/ml, 18 h
[1] = compound concentration: 1 ug/ml

| Compound | cell viability (compound concentration: 3 uM) [%] | cell viability [1] [%] |
| --- | --- | --- |
| CCCCn1c(=O)c2c(ncn2CC(C)=O)n(CCCC)c1=O [Denbufylline] | 109 | – |
| C[C@]12CC[C@@H]3c4ccc(O)cc4CC[C@H]3[C@@H]1CCC2=O | 109 | – |
| C[C@]12CC[C@@H]3c4ccc(O)cc4CC[C@H]3[C@@H]1CCC2=O [Estrone] | 100 ± 9.5 | – |
| COc1cc(C(=O)NC2CCCNC2)cc(OC)c1OC (centres undefined) | 87.8 | – |
| CC(=O)OCC1=C(C(=O)O)N2C(=O)[C@@H](NC(=O)CSc3ccncc3)[C@H]2SC1 | 109 | – |
| CC(=O)OCC1=C(C(=O)O)N2C(=O)[C@@H](NC(=O)CSc3ccncc3)[C@H]2SC1 [Cephapirin sodium salt] | – | 106 |
| CC(=O)N(CC(C)C(=O)O)c1c(I)cc(I)c(N)c1I (centres undefined) [Iocetamic acid] | 86.9 | – |
| O=C1OC2(c3ccc(O)cc3Oc3cc(O)ccc32)c2ccccc21 | 105 | – |
| COc1ccccc1-c1cc(=O)c2cc(O)ccc2o1 | – | 102 |
| CN(C)[C@@H]1C(O)=C(C(N)=O)C(=O)[C@@]2(O)C(O)=C3C(=O)c4c(O)ccc(Cl)c4[C@@](C)(O)[C@H]3C[C@@H]12 [Chlortetracycline hydrochloride] | 99.4 | – |
| CN(C)[C@@H]1C(O)=C(C(N)=O)C(=O)[C@@]2(O)C(O)=C3C(=O)c4c(O)ccc(Cl)c4[C@@](C)(O)[C@H]3C[C@@H]12 | 106 ± 1.6 | – |
| CCCCCCCC/C=C\CCCCCCCC(=O)NCCc1ccc(O)c(O)c1 [N-Oleoyldopamine] | 23.7 | – |
| O=NN(CCCl)C(=O)NC1CCCCC1 [Lomustine] | 117 | – |
| CNCCC(Oc1ccccc1OC)c1ccccc1 (centres undefined) [Nisoxetine] | 103 | – |
| CNCCC(Oc1ccccc1OC)c1ccccc1 (centres undefined) [Nisoxetine hydrochloride] | 97.3 ± 10 | – |
| CCCCC(C)(O)C/C=C/[C@H]1[C@H](O)CC(=O)[C@@H]1CCCCCCC(=O)OC (mixture of isomers) [Misoprostol] | 119 ± 22 | – |
| CC1CNCCN1S(=O)(=O)c1cccc2cnccc12 (centres undefined) | 94.6 | – |
| COc1ccccc1O [Guaiacol] | 102 ± 5.8 | – |
| Cc1cccc(CN2CCN(C(c3ccccc3)c3ccc(Cl)cc3)CC2)c1 (centres undefined) | 109 | – |
| Cc1cccc(CN2CCN(C(c3ccccc3)c3ccc(Cl)cc3)CC2)c1 (centres undefined) [Meclozine dihydrochloride] | 118 | – |
| O=C(O)CCC(=O)Nc1ccc(S(=O)(=O)Nc2nccs2)cc1 [Succinylsulfathiazole] | 110 | – |
| O=C(O)CCC(=O)Nc1ccc(S(=O)(=O)Nc2nccs2)cc1 | 98.8 | – |
| O=c1oc2c3c4c(cc2c2c1CCC2)CCCN4CCC3 [Coumarin 106] | – | 91.3 |
| CC(C)=CCC/C(C)=C/COc1c2occc2cc2ccc(=O)oc12 [Xanthotoxol geranyl ether] | – | 118 |

Full records, quoted from the list.
CC(=O)OCC1=C(C(=O)O)N2C(=O)[C@@H](NC(=O)CSc3ccncc3)[C@H]2SC1 as listed: cell viability (compound concentration: 3 uM) [%]: 109
O=c1oc2c3c4c(cc2c2c1CCC2)CCCN4CCC3 [Coumarin 106] as listed: cell viability [1] [%]: 91.3
